Measurements from publication PMC10502012.
No constants are given. Whether binding was seen depends on the method and setting. In cells and extracts the contact can be indirect. A result given as binding can be weak or reduced; the word gives no strength. Tags and fused reporters may be left off the sequences shown.

Target: Twin-Streptavidin-tagged chicken PHT1 (pull-down, wild type) (chicken)
Assay: pull-down; transporter and TASL co-transfected in Expi293F; DDM/CHS lysate on Strep-Tactin beads, eluted with desthiobiotin; western blot with anti-GFP-HRP

B1: full-length human TASL, GFP-His-tagged (protein, UniProt Q9HAI6 1-301)
chain: MLSEGYLSGLEYWNDIHWSCASYNEQVAGEKEEETNSVATLSYSSVDETQVRSLYVSCKSSGKFISSVHSRESQHSRSQRVTVLQTNPNPVFESPNLAAVEICRDASRETYLVPSSCKSICKNYNDLQIAGGQVMAINSVTTDFPSESSFEYGPLLKSSEIPLPMEDSISTQPSDFPQKPIQRYSSYWRITSIKEKSSLQMQNPISNAVLNEYLEQKVVELYKQYIMDTVFHDSSPTQILASELIMTSVDQISLQVSREKNLETSKARDIVFSRLLQLMSTEITEISTPSLHISQYSNVNP
B1 was tested, and the binding was “binds”.
